Source: patent US12296024B2, “Modified zinc oxide nanocomposite, antibiotic composition comprising the same, and combination preparation with the same” (UIF (University Industry Foundation), Yonsei University, priority 2021, dated 2025)
At least one compound was matched to its structure with a doubt left.

System: Aspergillus colony
Assay: Combination experiment with itraconazole, Aspergillus colony diameter
Format: cell-based
Details: alone administration groups; itraconazole 6 μg/mL, ZnO nanomaterials 0.1 mg/mL

## CCC(C)n1ncn(-c2ccc(N3CCN(c4ccc(OCC5COC(Cn6cncn6)(c6ccc(Cl)cc6Cl)O5)cc4)CC3)cc2)c1=O (stereo not shown) [itraconazole]
  growth rate of Aspergillus colonies after day 6 of culture: increased rapidly
